# From the supplement of paper PMC8728848
# Some of the results follow.
# B1: SBD (Rhizopus oryzae), P07683 (protein)
# chain: ASIPSSASVQLDSYNYDGSTFSGKIYVKNIAYSKKVTVVYADGSDNWNNNGNIIAASFSGPISGSNYEYWTFSASVKGIKEFYIKYEVSGKTYYDNNNSANYQVS
# How the values were obtained:
# Test in all cases: glycan array binding signal (z-score within array); higher = stronger binding
# Conditions in all cases: glycan notation: IUPAC condensed, linker removed
# [1] = biological target: Fuc(a1-2)[Gal(a1-3)]Gal(b1-4)[Fuc(a1-3)]GlcNAc
# Procedure, shortened: (§1)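 From the Consortium for Functional Glycomics database, 3228 arrays were curated, keeping only those whose protein sequence was available. Binding is given as a within-array Z-score averaged across arrays sharing a protein sequence and across linkers. Negative Z-scores can be read as non-binding.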
# [2] = biological target: Fuc(a1-2)[Gal(a1-4)]Gal(b1-4)GlcNAc
# Procedure, shortened: as §1
# [3] = biological target: Fuc(a1-2)[GalNAc(a1-3)]Gal
# Procedure, shortened: as §1
# [4] = biological target: Fuc(a1-2)[GalNAc(a1-3)]Gal(b1-3)GalNAc(a1-3)[Fuc(a1-2)]Gal(b1-4)GlcNAc
# Procedure, shortened: as §1
# [5] = biological target: Fuc(a1-2)[GalNAc(a1-3)]Gal(b1-3)GlcNAc
# Procedure, shortened: as §1
# [6] = biological target: Fuc(a1-2)[GalNAc(a1-3)]Gal(b1-3)GlcNAc(b1-2)Man(a1-3)[Fuc(a1-2)[GalNAc(a1-3)]Gal(b1-3)GlcNAc(b1-2)Man(a1-6)]Man(b1-4)GlcNAc(b1-4)GlcNAc
# Procedure, shortened: as §1
# [7] = biological target: Fuc(a1-2)[GalNAc(a1-3)]Gal(b1-4)Glc
# Procedure, shortened: as §1
# [8] = biological target: Fuc(a1-2)[GalNAc(a1-3)]Gal(b1-4)GlcNAc
# Procedure, shortened: as §1
# [9] = biological target: Fuc(a1-2)[GalNAc(a1-3)]Gal(b1-4)GlcNAc(b1-2)Man(a1-3)[Fuc(a1-2)[GalNAc(a1-3)]Gal(b1-4)GlcNAc(b1-2)Man(a1-6)]Man(b1-4)GlcNAc(b1-4)GlcNAc
# Procedure, shortened: as §1
# [10] = biological target: Fuc(a1-2)[GalNAc(a1-3)]Gal(b1-4)GlcNAc(b1-2)Man(a1-3)[GalNAc(a1-3)[Fuc(a1-2)]Gal(b1-4)GlcNAc(b1-2)Man(a1-6)]Man(b1-4)GlcNAc(b1-4)GlcNAc
# Procedure, shortened: as §1
# [11] = biological target: Fuc(a1-2)[GalNAc(a1-3)]Gal(b1-4)GlcNAc(b1-3)Gal(b1-4)GlcNAc
# Procedure, shortened: as §1
# [12] = biological target: Fuc(a1-2)[GalNAc(a1-3)]Gal(b1-4)GlcNAc(b1-3)Gal(b1-4)GlcNAc(b1-3)Gal(b1-4)GlcNAc
# Procedure, shortened: as §1
# [13] = biological target: Fuc(a1-2)[GalNAc(a1-3)]Gal(b1-4)[Fuc(a1-3)]GlcNAc
# Procedure, shortened: as §1
# [14] = biological target: Fuc(a1-2)[GalNAc(a1-4)]Gal(b1-4)GlcNAc
# Procedure, shortened: as §1
# [15] = biological target: Fuc(a1-2)[GalNAc(b1-3)]Gal
# Procedure, shortened: as §1
# Fuc(a1-3)GlcNAc = biological target: Fuc(a1-3)GlcNAc
# Procedure, shortened: as §1
# [16] = biological target: Fuc(a1-3)[Gal(b1-4)]Glc6S
# Procedure, shortened: as §1
# [17] = biological target: Fuc(a1-3)[Gal(b1-4)]GlcNAc
# Procedure, shortened: as §1
# [18] = biological target: Fuc(a1-3)[Gal(b1-4)]GlcNAc(b1-2)Man(a1-3)[Fuc(a1-3)[Gal(b1-4)]GlcNAc(b1-2)Man(a1-6)]Man(b1-4)GlcNAc(b1-4)GlcNAc
# Procedure, shortened: as §1
# [19] = biological target: Fuc(a1-3)[Gal(b1-4)]GlcNAc(b1-2)Man(a1-6)[Gal(b1-4)GlcNAc(b1-2)Man(a1-3)]Man(b1-4)GlcNAc(b1-4)GlcNAc
# Procedure, shortened: as §1
# [20] = biological target: Fuc(a1-3)[Gal(b1-4)]GlcNAc(b1-3)Gal(b1-3)[Fuc(a1-4)]GlcNAc
# Procedure, shortened: as §1
# [21] = biological target: Fuc(a1-3)[Gal(b1-4)]GlcNAc(b1-3)GalNAc
# Procedure, shortened: as §1
# [22] = biological target: Fuc(a1-3)[Gal(b1-4)]GlcNAc(b1-4)Gal(b1-4)[Fuc(a1-3)]GlcNAc
# Procedure, shortened: as §1
# [23] = biological target: Fuc(a1-3)[Gal(b1-4)]GlcNAc(b1-4)Gal(b1-4)[Fuc(a1-3)]GlcNAc(b1-4)Gal(b1-4)[Fuc(a1-3)]GlcNAc
# Procedure, shortened: as §1
# [24] = biological target: Fuc(a1-3)[Gal(b1-4)]GlcNAc(b1-6)[Gal(b1-3)GlcNAc(b1-3)]Gal(b1-4)Glc
# Procedure, shortened: as §1
# [25] = biological target: Fuc(a1-3)[Gal(b1-4)]GlcNAc6S
# Procedure, shortened: as §1
# [26] = biological target: Fuc(a1-3)[Gal3S(b1-4)]Glc6S
# Procedure, shortened: as §1
# [27] = biological target: Fuc(a1-3)[Gal3S(b1-4)]GlcNAc
# Procedure, shortened: as §1
# [28] = biological target: Fuc(a1-3)[Gal3S(b1-4)]GlcNAc6S
# Procedure, shortened: as §1
# [29] = biological target: Fuc(a1-3)[GalNAc(b1-4)]GlcNAc
# Procedure, shortened: as §1
# Fuc(a1-4)GlcNAc = biological target: Fuc(a1-4)GlcNAc
# Procedure, shortened: as §1
# Fuc(b1-3)GlcNAc = biological target: Fuc(b1-3)GlcNAc
# Procedure, shortened: as §1
# Gal(a1-2)Gal = biological target: Gal(a1-2)Gal
# Procedure, shortened: as §1
# Gal(a1-3)Gal = biological target: Gal(a1-3)Gal
# Procedure, shortened: as §1
# Gal(a1-3)Gal(b1-3)GlcNAc = biological target: Gal(a1-3)Gal(b1-3)GlcNAc
# Procedure, shortened: as §1
# [30] = biological target: Gal(a1-3)Gal(b1-3)GlcNAc(b1-2)Man(a1-3)[Gal(a1-3)Gal(b1-3)GlcNAc(b1-2)Man(a1-6)]Man(b1-4)GlcNAc(b1-4)GlcNAc
# Procedure, shortened: as §1
# [31] = biological target: Gal(a1-3)Gal(b1-3)[Fuc(a1-4)]GlcNAc(b1-2)Man(a1-3)[Gal(a1-3)Gal(b1-3)[Fuc(a1-4)]GlcNAc(b1-2)Man(a1-6)]Man(b1-4)GlcNAc(b1-4)GlcNAc
# Procedure, shortened: as §1
# Gal(a1-3)Gal(b1-4)Glc = biological target: Gal(a1-3)Gal(b1-4)Glc
# Procedure, shortened: as §1
binder,measurement,setting,value
B1,glycan array binding signal (z-score),[1],0.522
same,glycan array binding signal (z-score),[2],0.276
same,glycan array binding signal (z-score),[3],0.587
same,glycan array binding signal (z-score),[4],-1.02
same,glycan array binding signal (z-score),[5],-0.258
same,glycan array binding signal (z-score),[6],0.06
same,glycan array binding signal (z-score),[7],-0.2
same,glycan array binding signal (z-score),[8],-0.384
same,glycan array binding signal (z-score),[9],-0.079
same,glycan array binding signal (z-score),[10],0.417
same,glycan array binding signal (z-score),[11],0.147
same,glycan array binding signal (z-score),[12],-0.03
same,glycan array binding signal (z-score),[13],0.375
same,glycan array binding signal (z-score),[14],-0.226
same,glycan array binding signal (z-score),[15],-0.318
same,glycan array binding signal (z-score),Fuc(a1-3)GlcNAc,0.165
same,glycan array binding signal (z-score),[16],0.068
same,glycan array binding signal (z-score),[17],0.132
same,glycan array binding signal (z-score),[18],-0.273
same,glycan array binding signal (z-score),[19],-0.263
same,glycan array binding signal (z-score),[20],-0.2
same,glycan array binding signal (z-score),[21],1.73
same,glycan array binding signal (z-score),[22],0.673
same,glycan array binding signal (z-score),[23],0.197
same,glycan array binding signal (z-score),[24],-0.418
same,glycan array binding signal (z-score),[25],-0.323
same,glycan array binding signal (z-score),[26],0.589
same,glycan array binding signal (z-score),[27],-0.076
same,glycan array binding signal (z-score),[28],0.248
same,glycan array binding signal (z-score),[29],-0.229
same,glycan array binding signal (z-score),Fuc(a1-4)GlcNAc,-0.455
same,glycan array binding signal (z-score),Fuc(b1-3)GlcNAc,-0.152
same,glycan array binding signal (z-score),Gal(a1-2)Gal,-0.007
same,glycan array binding signal (z-score),Gal(a1-3)Gal,-0.697
same,glycan array binding signal (z-score),Gal(a1-3)Gal(b1-3)GlcNAc,0.112
same,glycan array binding signal (z-score),[30],0.791
same,glycan array binding signal (z-score),[31],1.9
same,glycan array binding signal (z-score),Gal(a1-3)Gal(b1-4)Glc,-0.213

# Three successive records out of the list so far:
binder,measurement,setting,value
B1,glycan array binding signal (z-score),[10],0.417
same,glycan array binding signal (z-score),[11],0.147
same,glycan array binding signal (z-score),[12],-0.03
